Source: publication PMC6013422
No constants are given. Whether binding was seen depends on the method and setting. Binding seen in cells or lysates may run through a third protein. Some results given as binding are weak or reduced against the parent protein; the word gives no strength.

Sequences of proteins named here, by UniProt entry; tags and fusion partners are left off.
UniProt Q9Y466: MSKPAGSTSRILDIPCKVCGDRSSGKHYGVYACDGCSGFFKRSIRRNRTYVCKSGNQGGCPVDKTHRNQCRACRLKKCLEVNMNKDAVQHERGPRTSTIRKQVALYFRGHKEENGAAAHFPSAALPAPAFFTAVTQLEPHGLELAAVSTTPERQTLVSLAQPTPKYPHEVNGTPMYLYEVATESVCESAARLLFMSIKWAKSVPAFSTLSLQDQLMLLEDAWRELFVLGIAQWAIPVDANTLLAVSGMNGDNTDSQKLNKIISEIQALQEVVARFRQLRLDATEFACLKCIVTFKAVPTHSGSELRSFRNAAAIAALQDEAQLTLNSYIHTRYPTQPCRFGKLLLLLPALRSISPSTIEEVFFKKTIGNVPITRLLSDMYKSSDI
UniProt Q9UQL6: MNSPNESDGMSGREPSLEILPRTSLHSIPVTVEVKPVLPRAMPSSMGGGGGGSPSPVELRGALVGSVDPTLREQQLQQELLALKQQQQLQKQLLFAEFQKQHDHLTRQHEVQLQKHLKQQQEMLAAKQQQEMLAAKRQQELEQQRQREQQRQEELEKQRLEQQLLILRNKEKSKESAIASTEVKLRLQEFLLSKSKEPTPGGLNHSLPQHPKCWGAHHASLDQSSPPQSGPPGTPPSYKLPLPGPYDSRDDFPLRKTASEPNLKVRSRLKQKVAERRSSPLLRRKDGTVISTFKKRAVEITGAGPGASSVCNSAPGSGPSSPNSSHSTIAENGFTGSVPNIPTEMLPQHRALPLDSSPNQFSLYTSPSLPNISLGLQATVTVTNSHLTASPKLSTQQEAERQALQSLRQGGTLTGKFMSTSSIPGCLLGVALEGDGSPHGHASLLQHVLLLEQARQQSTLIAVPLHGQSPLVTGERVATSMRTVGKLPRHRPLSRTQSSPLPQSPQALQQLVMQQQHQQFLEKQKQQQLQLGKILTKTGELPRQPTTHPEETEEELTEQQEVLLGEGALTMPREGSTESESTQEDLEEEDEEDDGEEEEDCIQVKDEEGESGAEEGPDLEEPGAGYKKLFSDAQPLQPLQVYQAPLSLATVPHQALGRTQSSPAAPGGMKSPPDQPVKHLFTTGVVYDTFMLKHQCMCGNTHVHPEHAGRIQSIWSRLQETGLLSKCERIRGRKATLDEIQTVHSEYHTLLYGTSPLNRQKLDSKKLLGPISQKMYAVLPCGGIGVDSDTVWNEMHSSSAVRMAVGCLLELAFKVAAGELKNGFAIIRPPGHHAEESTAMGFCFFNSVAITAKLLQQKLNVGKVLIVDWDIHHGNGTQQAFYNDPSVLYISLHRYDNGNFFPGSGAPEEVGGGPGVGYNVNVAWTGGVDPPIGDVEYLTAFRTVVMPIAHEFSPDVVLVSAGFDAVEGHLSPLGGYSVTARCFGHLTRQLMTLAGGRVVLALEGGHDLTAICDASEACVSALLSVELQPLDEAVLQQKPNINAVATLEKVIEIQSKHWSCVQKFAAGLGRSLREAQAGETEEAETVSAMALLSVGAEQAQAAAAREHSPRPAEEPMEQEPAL
UniProt O15379: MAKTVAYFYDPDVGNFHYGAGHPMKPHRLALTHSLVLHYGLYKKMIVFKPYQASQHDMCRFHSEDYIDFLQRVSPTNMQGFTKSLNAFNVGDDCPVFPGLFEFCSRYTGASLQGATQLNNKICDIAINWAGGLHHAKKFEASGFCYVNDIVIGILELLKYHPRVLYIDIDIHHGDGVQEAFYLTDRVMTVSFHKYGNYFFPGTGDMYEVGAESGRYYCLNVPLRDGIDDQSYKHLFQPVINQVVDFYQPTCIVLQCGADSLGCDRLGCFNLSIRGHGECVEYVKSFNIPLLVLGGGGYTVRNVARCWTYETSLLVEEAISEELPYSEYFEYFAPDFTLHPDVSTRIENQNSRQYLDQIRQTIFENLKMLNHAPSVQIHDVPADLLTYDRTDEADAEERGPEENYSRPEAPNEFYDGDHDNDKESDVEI
UniProt Q13547: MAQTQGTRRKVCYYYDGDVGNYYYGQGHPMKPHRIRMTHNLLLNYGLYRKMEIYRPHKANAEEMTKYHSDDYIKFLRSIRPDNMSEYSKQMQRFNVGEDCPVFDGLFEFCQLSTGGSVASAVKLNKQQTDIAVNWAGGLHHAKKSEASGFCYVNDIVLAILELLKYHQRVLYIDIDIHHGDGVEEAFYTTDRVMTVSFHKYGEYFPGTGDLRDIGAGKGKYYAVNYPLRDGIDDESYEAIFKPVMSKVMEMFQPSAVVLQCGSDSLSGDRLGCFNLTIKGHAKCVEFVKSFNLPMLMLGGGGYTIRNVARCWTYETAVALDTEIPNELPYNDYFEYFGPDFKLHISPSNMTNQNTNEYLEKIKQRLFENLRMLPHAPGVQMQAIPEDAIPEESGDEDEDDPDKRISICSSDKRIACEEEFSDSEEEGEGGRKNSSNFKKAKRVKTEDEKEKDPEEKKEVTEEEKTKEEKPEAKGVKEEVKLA

What was measured:
FLAG-TLX = FLAG-TLX (UniProt Q9Y466); assay: co-IP; lysates of FLAG-TLX-infected LNCaP cells immunoprecipitated with a FLAG antibody (IgG as control); immunoblot with HDACs and LSD1 antibodies
GST-TLX(1-385) = GST-TLX(1-385) (UniProt Q9Y466); assay: pull-down; GST-fusion protein bound to glutathione-sepharose beads incubated with lysates of TLX-transduced LNCaP cells overnight at 4 °C; washed with TIF buffer (150 mM NaCl, 20 mM Tris, 1 mM MgCl2, 0.1% NP40, 10% glycerol, pH 8.0); immunoblot; only the target purified

Substance	binding (FLAG-TLX)	binding (GST-TLX(1-385))
histone deacetylase 5 (HDAC5) (from UniProt Q9UQL6 1-1122) (enzyme)	no binding	–
histone deacetylase 3 (HDAC3) (from UniProt O15379 1-428) (enzyme)	binds	binds
histone deacetylase 1 (HDAC1) (from UniProt Q13547 1-482) (enzyme)	binds	binds
